According to the supplement of paper PMC6411743:
± gives the standard deviation of the averaged measurements. The list shows a part of the results, in another mix than the full data. Most entries show no effect beyond the scatter of the controls.

Protein sequences, listed by entry. Tags and fused reporters are not part of them. Lines headed by an entry give the natural chain unless they say otherwise; changes in a name come on top.
UniProt V9HW75, whole entry, looked up: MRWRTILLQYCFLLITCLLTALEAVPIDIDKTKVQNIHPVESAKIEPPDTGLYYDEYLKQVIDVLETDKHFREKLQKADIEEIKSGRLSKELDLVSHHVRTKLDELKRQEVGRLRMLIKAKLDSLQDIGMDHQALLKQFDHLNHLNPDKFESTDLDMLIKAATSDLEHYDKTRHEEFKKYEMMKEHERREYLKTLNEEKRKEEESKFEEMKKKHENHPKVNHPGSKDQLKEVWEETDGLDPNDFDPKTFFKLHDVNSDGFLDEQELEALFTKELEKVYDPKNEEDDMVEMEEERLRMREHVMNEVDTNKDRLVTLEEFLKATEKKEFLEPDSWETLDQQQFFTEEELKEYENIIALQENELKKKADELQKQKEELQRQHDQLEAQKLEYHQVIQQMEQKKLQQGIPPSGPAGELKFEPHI
UniProt Q9Y5J7: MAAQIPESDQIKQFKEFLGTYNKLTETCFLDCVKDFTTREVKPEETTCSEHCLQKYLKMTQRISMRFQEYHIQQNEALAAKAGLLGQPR
UniProt Q9Y4C4: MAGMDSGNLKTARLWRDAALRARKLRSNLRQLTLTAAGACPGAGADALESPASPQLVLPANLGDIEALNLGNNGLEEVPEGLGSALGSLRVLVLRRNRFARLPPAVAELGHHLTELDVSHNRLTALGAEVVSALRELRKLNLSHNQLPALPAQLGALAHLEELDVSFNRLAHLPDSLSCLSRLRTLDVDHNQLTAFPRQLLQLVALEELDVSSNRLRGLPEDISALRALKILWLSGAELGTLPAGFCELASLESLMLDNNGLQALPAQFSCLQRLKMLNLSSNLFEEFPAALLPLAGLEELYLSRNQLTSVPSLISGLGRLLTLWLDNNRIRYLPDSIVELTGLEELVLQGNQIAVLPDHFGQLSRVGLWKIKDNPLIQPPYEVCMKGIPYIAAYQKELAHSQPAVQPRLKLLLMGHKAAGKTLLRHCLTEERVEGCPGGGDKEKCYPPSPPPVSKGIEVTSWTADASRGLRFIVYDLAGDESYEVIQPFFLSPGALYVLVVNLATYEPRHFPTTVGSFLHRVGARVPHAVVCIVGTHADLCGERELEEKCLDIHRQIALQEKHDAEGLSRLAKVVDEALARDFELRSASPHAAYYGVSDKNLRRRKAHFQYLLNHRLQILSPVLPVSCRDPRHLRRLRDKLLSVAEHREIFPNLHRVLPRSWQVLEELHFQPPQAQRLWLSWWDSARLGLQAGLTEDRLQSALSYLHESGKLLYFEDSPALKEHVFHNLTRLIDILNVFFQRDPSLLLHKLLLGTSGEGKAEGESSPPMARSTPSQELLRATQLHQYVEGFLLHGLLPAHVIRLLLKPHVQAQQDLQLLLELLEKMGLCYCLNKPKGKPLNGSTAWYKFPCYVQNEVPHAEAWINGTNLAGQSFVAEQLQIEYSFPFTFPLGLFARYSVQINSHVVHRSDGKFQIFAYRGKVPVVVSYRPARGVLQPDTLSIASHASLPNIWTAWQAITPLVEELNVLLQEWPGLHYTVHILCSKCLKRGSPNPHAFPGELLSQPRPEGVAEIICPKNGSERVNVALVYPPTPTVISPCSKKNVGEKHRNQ
UniProt Q9Y5Q9: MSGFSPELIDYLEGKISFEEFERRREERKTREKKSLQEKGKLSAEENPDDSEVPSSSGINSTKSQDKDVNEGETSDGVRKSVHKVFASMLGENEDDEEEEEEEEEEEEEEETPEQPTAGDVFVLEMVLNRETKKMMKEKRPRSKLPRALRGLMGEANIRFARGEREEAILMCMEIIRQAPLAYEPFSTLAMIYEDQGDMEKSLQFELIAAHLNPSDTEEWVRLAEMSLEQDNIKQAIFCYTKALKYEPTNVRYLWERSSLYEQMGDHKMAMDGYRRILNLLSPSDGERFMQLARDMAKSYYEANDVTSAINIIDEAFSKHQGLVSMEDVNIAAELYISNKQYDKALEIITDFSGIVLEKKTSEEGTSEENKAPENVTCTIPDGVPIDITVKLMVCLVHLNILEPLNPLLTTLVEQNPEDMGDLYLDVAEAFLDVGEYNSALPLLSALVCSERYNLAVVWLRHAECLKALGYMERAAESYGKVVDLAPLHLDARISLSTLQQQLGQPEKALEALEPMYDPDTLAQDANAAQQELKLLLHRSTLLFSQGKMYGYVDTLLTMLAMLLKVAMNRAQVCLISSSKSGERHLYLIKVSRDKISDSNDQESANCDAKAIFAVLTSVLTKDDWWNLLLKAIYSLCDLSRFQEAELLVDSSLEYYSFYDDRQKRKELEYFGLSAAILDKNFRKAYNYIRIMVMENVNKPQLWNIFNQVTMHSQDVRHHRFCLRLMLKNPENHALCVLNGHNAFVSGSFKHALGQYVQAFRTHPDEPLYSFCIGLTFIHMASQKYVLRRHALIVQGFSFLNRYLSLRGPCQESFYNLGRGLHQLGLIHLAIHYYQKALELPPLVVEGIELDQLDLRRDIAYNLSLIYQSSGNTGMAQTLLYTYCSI
UniProt Q9Y5Z9: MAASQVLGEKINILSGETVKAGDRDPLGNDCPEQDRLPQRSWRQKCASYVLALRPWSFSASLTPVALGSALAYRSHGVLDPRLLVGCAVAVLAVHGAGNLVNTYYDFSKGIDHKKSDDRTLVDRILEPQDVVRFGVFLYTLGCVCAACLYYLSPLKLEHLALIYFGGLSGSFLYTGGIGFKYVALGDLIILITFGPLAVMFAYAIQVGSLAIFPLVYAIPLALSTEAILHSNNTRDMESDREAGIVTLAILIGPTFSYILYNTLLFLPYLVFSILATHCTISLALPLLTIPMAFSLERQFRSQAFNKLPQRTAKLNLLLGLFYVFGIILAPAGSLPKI
UniProt Q9Y657, whole entry: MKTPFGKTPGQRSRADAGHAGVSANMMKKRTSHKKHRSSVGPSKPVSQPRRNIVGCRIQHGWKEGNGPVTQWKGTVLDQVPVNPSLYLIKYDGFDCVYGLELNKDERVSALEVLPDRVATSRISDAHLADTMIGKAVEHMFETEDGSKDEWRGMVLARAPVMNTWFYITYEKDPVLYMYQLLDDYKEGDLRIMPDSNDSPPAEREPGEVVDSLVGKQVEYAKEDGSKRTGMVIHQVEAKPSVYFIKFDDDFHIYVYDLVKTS
UniProt Q9Y6X9: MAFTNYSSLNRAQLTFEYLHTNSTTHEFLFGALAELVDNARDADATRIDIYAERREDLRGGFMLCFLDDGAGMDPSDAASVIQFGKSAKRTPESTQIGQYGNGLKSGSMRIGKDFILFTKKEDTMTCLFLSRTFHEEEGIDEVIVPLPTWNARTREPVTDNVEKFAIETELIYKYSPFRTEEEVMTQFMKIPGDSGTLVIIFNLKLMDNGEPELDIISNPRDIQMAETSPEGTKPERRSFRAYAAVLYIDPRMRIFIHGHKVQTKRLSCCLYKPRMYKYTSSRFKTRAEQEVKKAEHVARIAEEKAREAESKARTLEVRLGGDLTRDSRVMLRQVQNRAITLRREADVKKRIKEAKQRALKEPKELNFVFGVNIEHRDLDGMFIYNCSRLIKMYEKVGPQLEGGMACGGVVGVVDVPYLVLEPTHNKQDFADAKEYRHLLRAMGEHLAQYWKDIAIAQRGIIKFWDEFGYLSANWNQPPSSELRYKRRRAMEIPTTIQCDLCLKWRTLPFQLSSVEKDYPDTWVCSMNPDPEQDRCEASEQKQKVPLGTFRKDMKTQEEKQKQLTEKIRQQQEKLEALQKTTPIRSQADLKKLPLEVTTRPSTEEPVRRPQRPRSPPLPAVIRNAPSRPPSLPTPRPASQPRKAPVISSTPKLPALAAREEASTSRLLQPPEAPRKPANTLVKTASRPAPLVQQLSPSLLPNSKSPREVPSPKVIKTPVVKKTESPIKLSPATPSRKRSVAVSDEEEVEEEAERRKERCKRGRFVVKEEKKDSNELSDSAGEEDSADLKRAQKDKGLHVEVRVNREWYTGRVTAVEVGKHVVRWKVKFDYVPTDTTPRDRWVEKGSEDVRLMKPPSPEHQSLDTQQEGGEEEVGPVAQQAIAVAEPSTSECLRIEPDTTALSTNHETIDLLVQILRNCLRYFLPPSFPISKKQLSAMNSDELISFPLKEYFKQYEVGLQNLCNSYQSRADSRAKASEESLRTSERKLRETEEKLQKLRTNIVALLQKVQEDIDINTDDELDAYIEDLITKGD
UniProt Q9Y3I1: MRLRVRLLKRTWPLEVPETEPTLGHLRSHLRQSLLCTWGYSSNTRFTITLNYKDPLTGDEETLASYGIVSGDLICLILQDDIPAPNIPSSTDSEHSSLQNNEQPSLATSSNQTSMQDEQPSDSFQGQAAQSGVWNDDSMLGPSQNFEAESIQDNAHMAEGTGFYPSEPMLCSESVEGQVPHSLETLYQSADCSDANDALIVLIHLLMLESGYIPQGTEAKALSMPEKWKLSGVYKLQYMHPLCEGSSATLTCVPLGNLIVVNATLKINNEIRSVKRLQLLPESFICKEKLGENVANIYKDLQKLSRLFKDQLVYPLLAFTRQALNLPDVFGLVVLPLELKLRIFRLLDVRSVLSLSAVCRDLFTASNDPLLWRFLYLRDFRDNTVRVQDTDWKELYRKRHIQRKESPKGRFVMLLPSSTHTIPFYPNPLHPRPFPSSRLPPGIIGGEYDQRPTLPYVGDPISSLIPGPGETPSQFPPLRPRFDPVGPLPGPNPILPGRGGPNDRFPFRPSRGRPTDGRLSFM
UniProt Q9Y6X8: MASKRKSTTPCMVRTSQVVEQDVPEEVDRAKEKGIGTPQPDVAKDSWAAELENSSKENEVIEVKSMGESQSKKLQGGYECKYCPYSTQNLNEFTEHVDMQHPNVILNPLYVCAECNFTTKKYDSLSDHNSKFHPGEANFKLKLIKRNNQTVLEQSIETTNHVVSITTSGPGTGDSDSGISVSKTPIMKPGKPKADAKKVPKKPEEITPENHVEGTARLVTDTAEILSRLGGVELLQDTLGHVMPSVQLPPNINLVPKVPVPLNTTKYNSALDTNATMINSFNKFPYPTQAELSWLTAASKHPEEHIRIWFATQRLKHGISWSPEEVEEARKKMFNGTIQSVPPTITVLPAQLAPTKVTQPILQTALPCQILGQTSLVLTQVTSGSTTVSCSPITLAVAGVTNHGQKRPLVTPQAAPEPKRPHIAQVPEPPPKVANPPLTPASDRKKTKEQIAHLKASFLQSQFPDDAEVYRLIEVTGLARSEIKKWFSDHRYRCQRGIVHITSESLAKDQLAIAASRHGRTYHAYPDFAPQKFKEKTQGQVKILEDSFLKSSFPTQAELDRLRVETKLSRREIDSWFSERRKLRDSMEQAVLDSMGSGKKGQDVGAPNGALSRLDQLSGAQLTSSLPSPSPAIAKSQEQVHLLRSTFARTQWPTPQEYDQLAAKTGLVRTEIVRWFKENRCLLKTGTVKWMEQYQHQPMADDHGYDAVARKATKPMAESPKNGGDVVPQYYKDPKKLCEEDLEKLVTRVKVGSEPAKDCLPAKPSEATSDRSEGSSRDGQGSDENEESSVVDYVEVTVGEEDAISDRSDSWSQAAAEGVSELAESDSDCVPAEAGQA
UniProt Q9Y5K8, whole entry: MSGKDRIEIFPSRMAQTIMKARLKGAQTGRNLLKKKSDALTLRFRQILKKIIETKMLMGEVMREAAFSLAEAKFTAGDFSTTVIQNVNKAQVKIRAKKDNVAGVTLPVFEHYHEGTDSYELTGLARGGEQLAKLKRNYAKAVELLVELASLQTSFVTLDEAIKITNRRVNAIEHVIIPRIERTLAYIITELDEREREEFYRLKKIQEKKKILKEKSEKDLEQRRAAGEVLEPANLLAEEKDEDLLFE

Compound: Nc1ncnc2c1ncn2[C@@H]1O[C@H](COP(=O)(O)OP(=O)(O)NP(=O)(O)O)[C@@H](O)[C@H]1O [adenylyl imidodiphosphate]
Test: NP40-soluble protein abundance relative to vehicle (solubility fold change) (ratio); higher = more soluble protein in presence of AMP-PNP
How it was run: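 Data come from three independent experiments in which Dounce-homogenised Jurkat crude lysate was treated at eight concentrations from 0.1 to 10 mM. Treatment ran 10 min at room temperature and then 3 min at 37 °C, after which 0.8% NP40 and benzonase were added for 60 min at 4 °C before ultracentrifugation. The supernatant underwent TMT labelling and LC-MS/MS, and vsn-normalised intensities were expressed as fold change against the detergent-processed vehicle in each replicate.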

Target	NP40-soluble protein abundance (concentration: 0.1mM)	NP40-soluble protein abundance (concentration: 0.5mM)
UniProt Q9Y4B5 and related entries	1 ± 0.011	0.996 ± 0.015
UniProt Q9Y4E8 and related entries	0.976 ± 0.02	0.996 ± 0.038
UniProt V9HW75	1.02 ± 0.064	1.15 ± 0.13
UniProt Q9Y639 and related entries	1.02 ± 0.067	1.02 ± 0.02
MAD1L1 (UniProt Q9Y6D9)	0.991 ± 0.024	1.01 ± 0.043
UniProt Q9Y3R5 and related entries	0.984 ± 0.028	0.998 ± 0.024
PSAT1 (UniProt Q9Y617)	1.02 ± 0.031	1.02 ± 0.057
UniProt Q9Y697 and related entries	1 ± 0.028	1.01 ± 0.045
ORC6 (UniProt Q9Y5N6)	0.9879 ± 0.0078	1.03 ± 0.044
UniProt Q9Y5J7 and related entries	0.98 ± 0.068	1.01 ± 0.042
CTDP1 (UniProt Q9Y5B0)	1.02 ± 0.019	1.02 ± 0.017
ZNF330 (UniProt Q9Y3S2)	1 ± 0.017	0.999 ± 0.045
UniProt Q9Y530	1.06 ± 0.047	0.997 ± 0.036
CLIC4 (UniProt Q9Y696)	1 ± 0.021	1.03 ± 0.032
UniProt Q9Y462 and related entries	0.998 ± 0.04	1.002 ± 0.0045
MFHAS1 (UniProt Q9Y4C4)	1.02 ± 0.029	0.982 ± 0.021
WASF2 (UniProt Q9Y6W5)	0.993 ± 0.027	0.987 ± 0.055
MRPS18B (UniProt Q9Y676)	0.977 ± 0.035	0.972 ± 0.025
GTF3C3 (UniProt Q9Y5Q9)	1.032 ± 0.0049	1.03 ± 0.021
ENPP4 (UniProt Q9Y6X5)	1 ± 0.035	1.06 ± 0.038

Target	NP40-soluble protein abundance (concentration: 0.1mM)	NP40-soluble protein abundance (concentration: 0.5mM)
UniProt Q9Y4P1 and related entries	0.993 ± 0.032	0.993 ± 0.011
NOC2L (UniProt Q9Y3T9)	1.01 ± 0.026	1.04 ± 0.013
DNMT3A (UniProt Q9Y6K1)	0.986 ± 0.038	0.977 ± 0.038
UniProt Q9Y4F3 and related entries	1 ± 0.027	0.989 ± 0.04
UniProt Q9Y5L0 and related entries	1.01 ± 0.028	1.02 ± 0.04
NUBP2 (UniProt Q9Y5Y2)	1.027 ± 0.01	1.02 ± 0.037
UniProt Q9Y5Z9 and related entries	1.01 ± 0.021	1.01 ± 0.04
SPIN1 (UniProt Q9Y657)	1.03 ± 0.03	1.04 ± 0.065
UniProt Q9Y4D1 and related entries	0.99 ± 0.017	0.9639 ± 0.0094
UniProt Q9Y4E6 and related entries	0.966 ± 0.049	0.923 ± 0.044
CAPN7 (UniProt Q9Y6W3)	0.989 ± 0.028	0.963 ± 0.021
SNX5 (UniProt Q9Y5X3)	0.998 ± 0.032	1.01 ± 0.068
UniProt Q9Y3V2 and related entries	1.02 ± 0.033	0.998 ± 0.051
HYOU1 (UniProt Q9Y4L1)	0.977 ± 0.015	0.999 ± 0.023
LSM5 (UniProt Q9Y4Y9)	1.06 ± 0.05	1.05 ± 0.094
UniProt Q9Y6X9 and related entries	1.06 ± 0.068	1.08 ± 0.031
UniProt Q9Y3Y2 and related entries	1.02 ± 0.066	0.982 ± 0.032
TMED3 (UniProt Q9Y3Q3)	1.03 ± 0.025	0.999 ± 0.07
UniProt Q9Y3F4 and related entries	0.984 ± 0.014	1.015 ± 0.0089
UniProt Q9Y3I1 and related entries	0.992 ± 0.019	0.981 ± 0.018

Looked up above.
NP40-soluble protein abundance (concentration: 0.5mM) with LSM5 (UniProt Q9Y4Y9) is entered as 1.05 ± 0.094
NP40-soluble protein abundance (concentration: 0.5mM) with HYOU1 (UniProt Q9Y4L1) is entered as 0.999 ± 0.023
NP40-soluble protein abundance (concentration: 0.5mM) with SPIN1 (UniProt Q9Y657) is entered as 1.04 ± 0.065

More results follow.

Target	NP40-soluble protein abundance (concentration: 0.1mM)	NP40-soluble protein abundance (concentration: 0.5mM)
ATP6V0A2 (UniProt Q9Y487)	1.02 ± 0.023	1.01 ± 0.025
ZHX2 (UniProt Q9Y6X8)	1.01 ± 0.023	1.007 ± 0.0036
UniProt Q9Y570 and related entries	0.987 ± 0.033	1.01 ± 0.04
SAMM50 (UniProt Q9Y512)	1.08 ± 0.049	0.954 ± 0.15
DYNC1LI1 (UniProt Q9Y6G9)	1.01 ± 0.045	1.01 ± 0.061
SNX8 (UniProt Q9Y5X2)	1.02 ± 0.018	0.995 ± 0.051
ATP6V1D (UniProt Q9Y5K8)	0.995 ± 0.022	0.996 ± 0.026
UniProt Q9Y421 and related entries	1.007 ± 0.0026	1.01 ± 0.053
UniProt Q9Y3U8	1.032 ± 0.0093	1.02 ± 0.032
UniProt Q9Y679 and related entries	1.01 ± 0.037	0.999 ± 0.068
TSC22D4 (UniProt Q9Y3Q8)	0.9968 ± 0.0083	0.987 ± 0.056
UniProt Q9Y6I3 and related entries	0.993 ± 0.029	0.983 ± 0.021
UniProt Q9Y535 and related entries	1 ± 0.045	1.01 ± 0.014
DDX49 (UniProt Q9Y6V7)	1.03 ± 0.035	1.05 ± 0.055
R4GN35 and related entries (UniProt Q5VZ89)	0.989 ± 0.029	0.972 ± 0.049
R4GMR5 and related entries (UniProt P48556)	1.03 ± 0.033	0.976 ± 0.1
FHOD1 (UniProt Q9Y613)	1.01 ± 0.024	0.982 ± 0.055
TIMM13 (UniProt Q9Y5L4)	0.992 ± 0.017	0.982 ± 0.044
